From patent US20080292561A1, “Pyrazolo-Pyrimidine Derivatives as Anti-Inflammatory Agents” (Glaxo Group Limited, priority 2005, published 2008)
Some results were stated once for a whole list of compounds, not compound by compound.

Key:
[1] = target: T1, glucocorticoid receptor (Homo sapiens, UniProt P04150); test: Glucocorticoid receptor binding assay (fluorescence polarisation, competition with Alexa 555 labelled dexamethasone derivative); settings: partially purified full length glucocorticoid receptor; 2 hrs at room temperature
T1 construct: a partially purified full length glucocorticoid receptor
T1 sequence (P04150 1-777): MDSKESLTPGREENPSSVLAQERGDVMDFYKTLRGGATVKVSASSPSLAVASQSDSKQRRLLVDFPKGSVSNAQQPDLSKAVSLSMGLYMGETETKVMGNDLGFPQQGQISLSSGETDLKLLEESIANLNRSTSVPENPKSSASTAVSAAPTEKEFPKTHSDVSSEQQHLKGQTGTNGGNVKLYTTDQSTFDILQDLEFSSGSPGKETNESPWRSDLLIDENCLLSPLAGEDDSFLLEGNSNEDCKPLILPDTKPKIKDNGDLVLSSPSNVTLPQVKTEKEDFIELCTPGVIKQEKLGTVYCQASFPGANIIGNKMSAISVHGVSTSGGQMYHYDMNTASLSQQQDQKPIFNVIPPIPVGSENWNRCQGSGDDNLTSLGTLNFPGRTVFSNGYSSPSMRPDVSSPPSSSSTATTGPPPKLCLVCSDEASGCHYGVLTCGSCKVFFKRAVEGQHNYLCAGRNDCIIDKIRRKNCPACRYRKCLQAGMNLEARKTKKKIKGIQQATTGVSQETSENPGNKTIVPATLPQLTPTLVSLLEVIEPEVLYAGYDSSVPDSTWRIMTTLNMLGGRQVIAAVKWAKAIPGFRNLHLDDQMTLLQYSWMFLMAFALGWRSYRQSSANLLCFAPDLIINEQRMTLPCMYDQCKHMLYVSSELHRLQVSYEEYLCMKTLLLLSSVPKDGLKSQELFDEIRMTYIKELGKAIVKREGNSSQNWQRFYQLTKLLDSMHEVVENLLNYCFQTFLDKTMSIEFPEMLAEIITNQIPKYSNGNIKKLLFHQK

[2] = target: T2, Progesterone Receptor (Homo sapiens, UniProt P06401); test: Assay for progesterone receptor activity (CV-1 cells transduced with PRb-BacMam and MMTV-BacMam); format: cell-based; settings: 24 h, Steady Glo
T2 construct: expressed in transfected cells; host or cells: CV-1 cells transduced with PRb-BacMam and MMTV-BacMam (luciferase reporter)
T2 sequence (P06401 1-933): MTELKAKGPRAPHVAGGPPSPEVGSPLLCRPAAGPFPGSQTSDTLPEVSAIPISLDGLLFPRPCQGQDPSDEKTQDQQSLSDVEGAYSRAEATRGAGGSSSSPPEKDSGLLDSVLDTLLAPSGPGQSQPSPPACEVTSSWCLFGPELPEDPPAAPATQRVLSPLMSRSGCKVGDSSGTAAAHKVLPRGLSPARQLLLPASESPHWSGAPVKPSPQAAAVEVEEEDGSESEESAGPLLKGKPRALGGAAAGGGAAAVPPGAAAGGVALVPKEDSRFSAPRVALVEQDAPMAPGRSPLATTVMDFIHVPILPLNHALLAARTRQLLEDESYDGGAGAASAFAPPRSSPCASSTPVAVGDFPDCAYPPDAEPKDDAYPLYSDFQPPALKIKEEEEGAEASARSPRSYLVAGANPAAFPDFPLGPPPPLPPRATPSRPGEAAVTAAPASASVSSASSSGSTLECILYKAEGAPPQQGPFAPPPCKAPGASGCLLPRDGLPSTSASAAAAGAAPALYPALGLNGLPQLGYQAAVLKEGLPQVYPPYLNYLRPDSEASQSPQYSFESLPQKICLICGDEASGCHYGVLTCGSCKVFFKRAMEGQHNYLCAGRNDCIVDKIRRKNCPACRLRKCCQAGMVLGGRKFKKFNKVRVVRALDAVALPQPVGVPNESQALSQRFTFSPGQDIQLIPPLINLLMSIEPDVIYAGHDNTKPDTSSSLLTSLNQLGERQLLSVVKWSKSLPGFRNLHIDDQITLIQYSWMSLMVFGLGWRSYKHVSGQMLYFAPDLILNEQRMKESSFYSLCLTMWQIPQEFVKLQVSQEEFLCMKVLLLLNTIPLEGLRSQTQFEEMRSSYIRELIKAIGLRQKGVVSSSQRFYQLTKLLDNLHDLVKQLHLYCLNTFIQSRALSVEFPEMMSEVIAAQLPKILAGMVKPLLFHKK

| Compound | glucocorticoid binding pIC50 [1] | pEC50, progesterone receptor activity [2] |
| --- | --- | --- |
| CCc1nc(NCC(O)(CC(C)(C)c2cccc3c2OCC3)C(F)(F)F)c2cnn(-c3ccncc3)c2n1 (stereo not drawn) [Example 10, 4-(2,3-Dihydro-1-benzofuran-7-yl)-2-({[6-ethyl-1-(4-pyridinyl)-1H-pyrazolo[3,4-d]pyrimidin-4-yl]amino}methyl)-1,1,1-trifluoro-4-methyl-2-pentanol] | > 6.5 |  |
| CCc1nc(NCC(O)(CC(C)(C)c2cccc3c2OCC3)C(F)(F)F)c2cnn(-c3ccsc3)c2n1 (stereo not drawn) [Example 12, 4-(2,3-Dihydro-1-benzofuran-7-yl)-2-({[6-ethyl-1-(3-thienyl)-1H-pyrazolo[3,4-d]pyrimidin-4-yl]amino}methyl)-1,1,1-trifluoro-4-methyl-2-pentanol] | > 6.5 |  |
| COC(=O)c1cccc(-n2ncc3c(NCC(O)(CC(C)(C)c4cc(F)ccc4OC)C(F)(F)F)nc(C)nc32)c1 (stereo not drawn) [Example 23, Methyl 3-(4-{[4-[5-fluoro-2-(methyloxy)phenyl]-2-hydroxy-4-methyl-2-(trifluoromethyl)pentyl]amino}-6-methyl-1H-pyrazolo[3,4-d]pyrimidin-1-yl)benzoate] | > 6.5 | < 5.5 |
| CCc1nc(NCC(O)(CC(C)(C)c2cc(F)ccc2OC)C(F)(F)F)c2cnn(-c3ccccc3)c2n1 (stereo not drawn) [Example 26, 2-{[(6-Ethyl-1-phenyl-1H-pyrazolo[3,4-d]pyrimidin-4-yl)amino]methyl}-1,1,1-trifluoro-4-[5-fluoro-2-(methyloxy)phenyl]-4-methyl-2-pentanol] | > 6.5 | < 5.5 |
| Cc1nc(NCC(O)(CC(C)(C)c2cccc3c2OCC3)C(F)(F)F)c2cnn(-c3ccc(F)cc3F)c2n1 (stereo not drawn) [Example 4, 2-({[1-(2,4-Difluorophenyl)-6-methyl-1H-pyrazolo[3,4-d]pyrimidin-4-yl]amino}methyl)-4-(2,3-dihydro-1-benzofuran-7-yl)-1,1,1-trifluoro-4-methyl-2-pentanol] | > 6.5 |  |
| CCc1nc(NCC(O)(CC(C)(C)c2cccc3c2OCC3)C(F)(F)F)c2cnn(-c3cccc(C#N)c3)c2n1 (stereo not drawn) [Example 29, 3-(4-{[4-(2,3-Dihydro-1-benzofuran-7-yl)-2-hydroxy-4-methyl-2-(trifluoromethyl)pentyl]amino}-6-ethyl-1H-pyrazolo[3,4-d]pyrimidin-1-yl)benzonitrile] | > 6.5 |  |
| Cc1nc(NCC(O)(CC(C)(C)c2cccc3c2OCC3)C(F)(F)F)c2cnn(-c3ccccc3F)c2n1 (stereo not drawn) [Example 2, 4-(2,3-Dihydro-1-benzofuran-7-yl)-1,1,1-trifluoro-2-({[1-(2-fluorophenyl)-6-methyl-1H-pyrazolo[3,4-d]pyrimidin-4-yl]amino}methyl)-4-methyl-2-pentanol] | > 6.5 |  |
| CCc1nc(NCC(O)(CC(C)(C)c2cccc3c2OCC3)C(F)(F)F)c2cnn(-c3ccc(F)cc3)c2n1 (stereo not drawn) [Example 7, 4-(2,3-Dihydro-1-benzofuran-7-yl)-2-({[6-ethyl-1-(4-fluorophenyl)-1H-pyrazolo[3,4-d]pyrimidin-4-yl]amino}methyl)-1,1-trifluoro-4-methyl-2-pentanol] | > 6.5 |  |
| COc1ccc(F)cc1C(C)(C)CC(O)(CNc1nc(C)nc2c1cnn2-c1ccc(F)nc1)C(F)(F)F (stereo not drawn) [Example 20, 1,1,1-Trifluoro-4-[5-fluoro-2-(methyloxy)phenyl]-2-({[1-(6-fluoro-3-pyridinyl)-6-methyl-1H-pyrazolo[3,4-d]pyrimidin-4-yl]amino}methyl)-4-methyl-2-pentanol] | > 6.5 | < 5.5 |
| COc1ccc(F)cc1C(C)(C)CC(O)(CNc1nc(C)nc2c1cnn2-c1ccc(C#N)cc1)C(F)(F)F (stereo not drawn) [Example 21, 4-(4-{[4-[5-Fluoro-2-(methyloxy)phenyl]-2-hydroxy-4-methyl-2-(trifluoromethyl)pentyl]amino}-6-methyl-1H-pyrazolo[3,4-d]pyrimidin-1-yl)benzonitrile] | > 6.5 | < 5.5 |
| CCc1nc(NCC(O)(CC(C)(C)c2cccc3c2OCC3)C(F)(F)F)c2cnn(-c3ccc(F)cc3F)c2n1 (stereo not drawn) [Example 8, 2-({[1-(2,4-Difluorophenyl)-6-ethyl-1H-pyrazolo[3,4-d]pyrimidin-4-yl]amino}methyl)-4-(2,3-dihydro-1-benzofuran-7-yl)-1,1,1-trifluoro-4-methyl-2-pentanol] | > 6.5 |  |
| COc1ccc(F)cc1C(C)(C)CC(O)(CNc1nc(C)nc2c1cnn2-c1ccc(F)cc1)C(F)(F)F (stereo not drawn) [Example 15, 1,1,1-Trifluoro-4-[5-fluoro-2-(methyloxy)phenyl]-2-({[1-(4-fluorophenyl)-6-methyl-1H-pyrazolo[3,4-d]pyrimidin-4-yl]amino}methyl)-4-methyl-2-pentanol] | > 6.5 | < 5.5 |
| CCc1nc(NCC(O)(CC(C)(C)c2cccc3c2OCC3)C(F)(F)F)c2cnn(-c3ccc(F)nc3)c2n1 (stereo not drawn) [Example 11, 4-(2,3-Dihydro-1-benzofuran-7-yl)-2-({[6-ethyl-1-(6-fluoro-3-pyridinyl)-1H-pyrazolo[3,4-d]pyrimidin-4-yl]amino}methyl)-1,1,1-trifluoro-4-methyl-2-pentanol] | > 6.5 |  |
| CCc1nc(NCC(O)(CC(C)(C)c2cccc3c2OCC3)C(F)(F)F)c2cnn(-c3cccnc3)c2n1 (stereo not drawn) [Example 9, 4-(2,3-Dihydro-1-benzofuran-7-yl)-2-({[6-ethyl-1-(3-pyridinyl)-1H-pyrazolo[3,4-d]pyrimidin-4-yl]amino}methyl)-1,1,1-trifluoro-4-methyl-2-pentanol] | > 6.5 |  |
| Cc1nc(NCC(O)(CC(C)(C)c2cccc3c2OCC3)C(F)(F)F)c2cnn(-c3ccccc3)c2n1 (stereo not drawn) [Example 1, 4-(2,3-Dihydro-1-benzofuran-7-yl)-1,1,1-trifluoro-4-methyl-2-{[(6-methyl-1-phenyl-1H-pyrazolo[3,4-d]pyrimidin-4-yl)amino]methyl}-2-pentanol] | > 6.5 |  |
| Cc1nc(NCC(O)(CC(C)(C)c2cccc3c2OCC3)C(F)(F)F)c2cnn(-c3ccc(F)cc3)c2n1 (stereo not drawn) [Example 3, 4-(2,3-Dihydro-1-benzofuran-7-yl)-1,1,1-trifluoro-2-({[1-(4-fluorophenyl)-6-methyl-1H-pyrazolo[3,4-d]pyrimidin-4-yl]amino}methyl)-4-methyl-2-pentanol] | > 6.5 |  |
| CCc1nc(NCC(O)(CC(C)(C)c2cccc3c2OCC3)C(F)(F)F)c2cnn(-c3ccccc3)c2n1 (stereo not drawn) [Example 5, 4-(2,3-Dihydro-1-benzofuran-7-yl)-2-{[(6-ethyl-1-phenyl-1H-pyrazolo[3,4-d]pyrimidin-4-yl)amino]methyl}-1,1,1-trifluoro-4-methyl-2-pentanol] | > 6.5 |  |
| CCc1nc(NCC(O)(CC(C)(C)c2cccc3c2OCC3)C(F)(F)F)c2cnn(-c3cccc(C(=O)OC)c3)c2n1 (stereo not drawn) [Example 30, Methyl 3-(4-{[4-(2,3-dihydro-1-benzofuran-7-yl)-2-hydroxy-4-methyl-2-(trifluoromethyl)pentyl]amino}-6-ethyl-1H-pyrazolo[3,4-d]pyrimidin-1-yl)benzoate] | > 6.5 |  |
| CCc1nc(NCC(O)(CC(C)(C)c2cccc3c2OCC3)C(F)(F)F)c2cnn(-c3ccccc3F)c2n1 (stereo not drawn) [Example 6, 4-(2,3-Dihydro-1-benzofuran-7-yl)-2-({[6-ethyl-1-(2-fluorophenyl)-1H-pyrazolo[3,4-d]pyrimidin-4-yl]amino}methyl)-1,1,1-trifluoro-4-methyl-2-pentanol] | > 6.5 |  |
